Assay results reported in the supplement of paper PMC9233669.
This sample is rich in variants without activity.

How the values were obtained:
biotinyl-Ile-oxazolone = test: self-aminoacylation, catalytic enhancement (BIO) (fold over background); higher = more active; k-Seq, kA / k0A0; sequences stand for … in GGGAAUGGAUCCACAUCUACGAAUUC…UUCACUGCAGACUUGACGAAGCUG
Outline: (§1)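 Mutagenized RNA pools (0.43 μM; 21-nt variable region) were treated with 2–1250 μM of each biotinyl-aminoacyl-oxazolone. Conditions were 50 μL HEPES/NaCl/KCl/MgCl2/CaCl2 buffer, 5% acetonitrile, pH 6.9–7.0, room temperature, 90 minutes. Catalytic enhancement, the median kA relative to the uncatalyzed rate, was derived from streptavidin capture, qPCR and Illumina sequencing.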

biotinyl-Phe-oxazolone = test: self-aminoacylation, catalytic enhancement (BFO) (fold over background); higher = more active; k-Seq, kA / k0A0; sequences stand for … in GGGAAUGGAUCCACAUCUACGAAUUC…UUCACUGCAGACUUGACGAAGCUG
Outline: as §1

biotinyl-Met-oxazolone = test: self-aminoacylation, catalytic enhancement (BMO) (fold over background); higher = more active; k-Seq, kA / k0A0; sequences stand for … in GGGAAUGGAUCCACAUCUACGAAUUC…UUCACUGCAGACUUGACGAAGCUG
Outline: as §1

biotinyl-Val-oxazolone = test: self-aminoacylation, catalytic enhancement (BVO) (fold over background); higher = more active; k-Seq, kA / k0A0; sequences stand for … in GGGAAUGGAUCCACAUCUACGAAUUC…UUCACUGCAGACUUGACGAAGCUG
Outline: as §1

biotinyl-Trp-oxazolone = test: self-aminoacylation, catalytic enhancement (BWO) (fold over background); higher = more active; k-Seq, kA / k0A0; sequences stand for … in GGGAAUGGAUCCACAUCUACGAAUUC…UUCACUGCAGACUUGACGAAGCUG
Outline: as §1

biotinyl-Leu-oxazolone = test: self-aminoacylation, catalytic enhancement (BLO) (fold over background); higher = more active; k-Seq, kA / k0A0; sequences stand for … in GGGAAUGGAUCCACAUCUACGAAUUC…UUCACUGCAGACUUGACGAAGCUG
Outline: as §1

Sequence | self-aminoacylation (biotinyl-Ile-oxazolone) | self-aminoacylation (biotinyl-Phe-oxazolone) | self-aminoacylation (biotinyl-Met-oxazolone) | self-aminoacylation (biotinyl-Val-oxazolone) | self-aminoacylation (biotinyl-Trp-oxazolone) | self-aminoacylation (biotinyl-Leu-oxazolone)
CCACACUUCAGGCAAUCUGUC [Fam1B.1 aminoacylation ribozyme variant] | 0.459 | 0.547 | 0.47 | 0.573 | 0.486 | 0.463
CCACACUUCCAGCAAACGGUC [Fam1B.1 aminoacylation ribozyme variant] | 0.832 | 1.06 | 0.53 | 1.21 | 0.71 | 0.772
CCACACUUCCAGCAAGCGGUC [Fam1B.1 aminoacylation ribozyme variant] | 1.3 | 1.19 | 1.03 | 1.37 | 0.807 | 0.971
CCACACUUCCAGCAAUCUGUC [Fam1B.1 aminoacylation ribozyme variant] | 0.608 | 0.691 | 0.487 | 0.873 | 0.38 | 0.445
CCACACUUCCAGCUAUCGGUC [Fam1B.1 aminoacylation ribozyme variant] | 1.38 | 0.712 | 1.01 | 1.63 | 0.989 | 1.22
CCACACUUCGAGCACUCGGUC [Fam1B.1 aminoacylation ribozyme variant] | 1.49 | 0.74 | 1.06 | 1.89 | 1.44 | 1.32
CCACACUUCUAGAAAUCGGUC [Fam1B.1 aminoacylation ribozyme variant] | 0.667 | 0.507 | 0.788 | 0.703 | 0.809 | 0.763
CCACACUUCUAGCAACCGGUC [Fam1B.1 aminoacylation ribozyme variant] | 0.817 | 0.818 | 0.681 | 0.946 | 0.402 | 0.868
CCACACUUCUAGCAAUCGGUA [Fam1B.1 aminoacylation ribozyme variant] | 0.879 | 0.623 | 0.706 | 0.744 | 0.539 | 0.845
CCACACUUCUAGCUAUCGGUC [Fam1B.1 aminoacylation ribozyme variant] | 0.898 | 1.02 | 0.752 | 1.07 | 0.594 | 0.663
CCACACUUGAAGCAAUCGGUC [Fam1B.1 aminoacylation ribozyme variant] | 0.836 | 0.778 | 0.782 | 0.926 | 0.805 | 0.735
CCACACUUGAAGCACUCGGUC [Fam1B.1 aminoacylation ribozyme variant] | 1.29 | 1.05 | 0.82 | 1.63 | 1.51 | 1.12
CCACACUUGAAGCAGUCGGUC [Fam1B.1 aminoacylation ribozyme variant] | 1.13 | 0.862 | 0.93 | 1.06 | 0.845 | 1.12
CCACACUUGUAGCAAUCGGUC [Fam1B.1 aminoacylation ribozyme variant] | 1.06 | 0.817 | 1.03 | 1.19 | 0.659 | 1.08
CCACACUUUAAGCAAUCUGUC [Fam1B.1 aminoacylation ribozyme variant] | 0.37 | 0.54 | 0.365 | 0.53 | 0.383 | 0.397
CCACAGGUCAAGCAAUCGGUC [Fam1B.1 aminoacylation ribozyme variant] | 1.64 | 1.09 | 1.82 | 1.63 | 1.93 | 1.61
CCACAGUUCAAGCAAUCGAUC [Fam1B.1 aminoacylation ribozyme variant] | 0.675 | 0.55 | 0.718 | 0.755 | 0.461 | 0.479
CCACAGUUCGAGCAAUCGGUC [Fam1B.1 aminoacylation ribozyme variant] | 1.59 | 0.96 | 1.49 | 1.59 | 1.71 | 1.82
CCACAGUUGAAGCAAUCGGUC [Fam1B.1 aminoacylation ribozyme variant] | 0.998 | 0.817 | 1 | 0.908 | 0.923 | 0.999
CCACAUUUCAAGCAAUCUGUC [Fam1B.1 aminoacylation ribozyme variant] | 0.603 | 1.03 | 0.528 | 0.708 | 0.433 | 0.523
CCACAUUUCAAGCAAUGGGUC [Fam1B.1 aminoacylation ribozyme variant] | 1.75 | 1.36 | 1.29 | 1.48 | 1.16 | 1.68
CCACAUUUCAAGCCAUCGGUC [Fam1B.1 aminoacylation ribozyme variant] | 1.52 | 1.02 | 1.75 | 1.42 | 1.18 | 1.35
CCACCCUUCAAGCAAUCGCUC [Fam1B.1 aminoacylation ribozyme variant] | 1.65 | 0.977 | 1.87 | 2.28 | 2.73 | 2.55
CCACGCUUCAAGCAAUCAGUC [Fam1B.1 aminoacylation ribozyme variant] | 0.745 | 27.4 | 0.811 | 0.83 | 9.22 | 0.886
CCACGCUUCAAGCAAUCGUUC [Fam1B.1 aminoacylation ribozyme variant] | 0.545 | 1.32 | 0.471 | 0.523 | 0.659 | 0.545
